Publication PMC5691081
Positions count from the first letter of the chain named. No constants are given. Whether binding was seen depends on the method and setting. In cells and extracts the contact can be indirect. Some entries that bind do so weakly or less than the wild type. Tags and fused reporters may be left off the sequences shown.

Amino acid sequences for entries named in this document (tags omitted).
UniProt Q9NSV4: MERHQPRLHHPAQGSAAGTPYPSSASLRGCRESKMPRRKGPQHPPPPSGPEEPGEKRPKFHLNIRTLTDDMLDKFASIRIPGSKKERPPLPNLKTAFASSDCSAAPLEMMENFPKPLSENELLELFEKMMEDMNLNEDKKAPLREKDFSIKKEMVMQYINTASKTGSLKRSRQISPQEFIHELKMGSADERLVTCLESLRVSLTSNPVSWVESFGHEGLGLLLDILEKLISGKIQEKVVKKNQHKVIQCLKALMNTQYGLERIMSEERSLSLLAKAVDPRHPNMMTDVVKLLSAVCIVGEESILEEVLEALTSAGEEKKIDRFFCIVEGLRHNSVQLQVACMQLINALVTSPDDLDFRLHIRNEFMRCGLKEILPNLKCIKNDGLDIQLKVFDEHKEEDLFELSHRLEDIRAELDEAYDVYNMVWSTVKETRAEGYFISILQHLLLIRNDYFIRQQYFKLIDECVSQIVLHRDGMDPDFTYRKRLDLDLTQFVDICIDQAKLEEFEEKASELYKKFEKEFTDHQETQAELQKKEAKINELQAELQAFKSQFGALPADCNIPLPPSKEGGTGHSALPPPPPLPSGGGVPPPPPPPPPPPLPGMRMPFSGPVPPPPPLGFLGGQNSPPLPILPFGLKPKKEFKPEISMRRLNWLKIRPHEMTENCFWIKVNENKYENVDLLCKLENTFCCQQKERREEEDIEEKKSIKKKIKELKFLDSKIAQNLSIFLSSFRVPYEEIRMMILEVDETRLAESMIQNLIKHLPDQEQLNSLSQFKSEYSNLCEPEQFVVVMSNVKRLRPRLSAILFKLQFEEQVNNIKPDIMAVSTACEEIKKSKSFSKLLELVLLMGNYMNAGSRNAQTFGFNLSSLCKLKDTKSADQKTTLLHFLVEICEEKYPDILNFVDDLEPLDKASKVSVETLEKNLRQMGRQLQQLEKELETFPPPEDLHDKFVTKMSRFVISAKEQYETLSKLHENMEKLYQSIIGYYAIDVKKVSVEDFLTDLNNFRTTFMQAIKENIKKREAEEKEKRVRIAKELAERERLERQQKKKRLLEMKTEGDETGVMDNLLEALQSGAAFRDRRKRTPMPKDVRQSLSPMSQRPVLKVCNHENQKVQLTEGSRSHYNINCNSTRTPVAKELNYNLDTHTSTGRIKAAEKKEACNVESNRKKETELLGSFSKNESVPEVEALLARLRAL

Key:
[1] = biological target: T1, GFP-anillin-wt (human) (UniProt Q9NQW6); experiment: co-IP; GFP-Trap beads, lysates of stable HeLa lines induced with 1 µg/ml Dox for 24 h; 1% Triton X-100, 150 mM NaCl, overnight at 4 °C; anti-DIAPH3 blot
T1 sequence: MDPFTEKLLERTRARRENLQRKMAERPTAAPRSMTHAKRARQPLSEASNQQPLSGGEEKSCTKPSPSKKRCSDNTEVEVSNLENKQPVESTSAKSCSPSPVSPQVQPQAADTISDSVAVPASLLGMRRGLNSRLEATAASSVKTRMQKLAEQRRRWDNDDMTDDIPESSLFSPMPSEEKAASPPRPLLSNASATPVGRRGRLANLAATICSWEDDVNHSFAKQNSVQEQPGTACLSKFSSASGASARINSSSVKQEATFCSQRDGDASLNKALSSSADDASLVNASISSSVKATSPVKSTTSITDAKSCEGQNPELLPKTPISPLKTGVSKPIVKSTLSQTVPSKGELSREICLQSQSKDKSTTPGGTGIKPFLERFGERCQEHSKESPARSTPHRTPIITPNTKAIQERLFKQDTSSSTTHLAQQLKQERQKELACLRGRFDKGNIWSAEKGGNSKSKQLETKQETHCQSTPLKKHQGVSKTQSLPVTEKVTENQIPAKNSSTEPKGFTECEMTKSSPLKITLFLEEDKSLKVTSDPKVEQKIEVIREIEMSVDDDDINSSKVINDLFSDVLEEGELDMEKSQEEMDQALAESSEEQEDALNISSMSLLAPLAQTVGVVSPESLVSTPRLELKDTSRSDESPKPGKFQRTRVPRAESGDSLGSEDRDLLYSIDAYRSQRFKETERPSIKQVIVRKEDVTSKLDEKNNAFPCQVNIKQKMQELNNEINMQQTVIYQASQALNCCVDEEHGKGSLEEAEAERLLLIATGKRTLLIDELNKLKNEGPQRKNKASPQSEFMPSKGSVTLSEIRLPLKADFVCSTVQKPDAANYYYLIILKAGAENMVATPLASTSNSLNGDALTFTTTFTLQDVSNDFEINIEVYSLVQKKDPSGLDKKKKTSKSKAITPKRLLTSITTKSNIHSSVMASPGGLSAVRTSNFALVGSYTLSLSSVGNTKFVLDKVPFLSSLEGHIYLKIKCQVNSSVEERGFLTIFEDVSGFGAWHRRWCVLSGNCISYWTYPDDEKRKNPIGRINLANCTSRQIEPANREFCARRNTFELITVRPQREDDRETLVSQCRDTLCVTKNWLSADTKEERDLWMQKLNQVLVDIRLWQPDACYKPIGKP

[2] = biological target: T2, GFP-anillin-RQPL(41–44)-AAAA (human) (UniProt Q9NQW6); experiment: as above
T2 sequence: T1 sequence with R41A, Q42A, P43A, L44A

binding [1]: binds
binding [2]: binds weakly
Substance: DIAPH3 (endogenous) (from UniProt Q9NSV4 1-1193)
